We go through seven molecules from PMC7118133, “Dual functions of Aire CARD multimerization in the transcriptional regulation of T cell tolerance” (Nature Communications, 2020).

By UniProt entry, the sequences of proteins in these tests, tags left out. Where a name states a change or a piece, a line headed by the entry shows the natural chain unless it says otherwise. Chains listed by the source or under a name are the forms on record and can include a tag or linker.
human Aire (hAire) CARD L13P (O43918, form named): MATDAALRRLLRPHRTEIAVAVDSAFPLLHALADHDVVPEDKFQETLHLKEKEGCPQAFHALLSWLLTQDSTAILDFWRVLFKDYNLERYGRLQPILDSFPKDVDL
human Aire (hAire) CARD A58V (O43918, form named): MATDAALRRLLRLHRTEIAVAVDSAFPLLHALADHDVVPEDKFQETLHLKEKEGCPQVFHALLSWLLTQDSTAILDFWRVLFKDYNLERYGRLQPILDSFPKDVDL
human Aire (hAire) CARD T16M (O43918, form named): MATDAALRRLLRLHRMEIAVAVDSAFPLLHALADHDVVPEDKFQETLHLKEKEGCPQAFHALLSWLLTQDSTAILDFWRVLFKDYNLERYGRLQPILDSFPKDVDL
human Aire (hAire) CARD K83E (O43918, form named): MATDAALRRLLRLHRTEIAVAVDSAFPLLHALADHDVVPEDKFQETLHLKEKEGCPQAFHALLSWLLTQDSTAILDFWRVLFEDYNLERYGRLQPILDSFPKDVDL
human Aire (hAire) CARD L28P (O43918, form named): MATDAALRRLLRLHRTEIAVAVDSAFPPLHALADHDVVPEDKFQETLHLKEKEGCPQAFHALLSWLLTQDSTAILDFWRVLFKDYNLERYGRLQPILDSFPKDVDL

Assay [1] deals with human Aire (hAire) CARD L13P (human) (UniProt O43918). In words: negative-stain electron microscopy; filament formation of purified hAire CARD variants refolded from 6 M GdHCl by dialysis (20 mM HEPES pH 7.5, 1 M KCl, 5 mM βME, 16 h, 4 °C) and kept at 4 °C for another 24 h; diluted in TNE buffer to ~50–200 µg/ml, uranyl formate stain; both purified.
For assay [2], the target named is human Aire (hAire) CARD A58V (human) (UniProt O43918). The assay is described as above.
Assay [3] addresses mouse Aire (mAire) CARD R16A/E18A (mouse) (UniProt Q9Z0E3). In words: negative-stain electron microscopy; filament formation of purified mAire CARD variants after cleavage of the NusA tag with HRV 3C (4 °C, 16 h); diluted in TNE buffer (100 mM Tris pH 8, 50 mM NaCl, 10 mM EDTA) to ~50–200 µg/ml, uranyl formate stain; WT in Fig. 1b also denatured and refolded; both purified.
For assay [4], the target named is human Aire (hAire) CARD T16M (human) (UniProt O43918). In words: negative-stain electron microscopy; filament formation of purified hAire CARD variants refolded from 6 M GdHCl by dialysis (20 mM HEPES pH 7.5, 1 M KCl, 5 mM βME, 16 h, 4 °C) and kept at 4 °C for another 24 h; diluted in TNE buffer to ~50–200 µg/ml, uranyl formate stain; both purified.
In assay [5] the target is human Aire (hAire) CARD K83E (human) (UniProt O43918). Described as above.
Assay [6] concerns the target human Aire (hAire) CARD L28P (human) (UniProt O43918). The description is as above.
In assay [7] the target is mouse Aire (mAire) CARD D35A/D37A (mouse) (UniProt Q9Z0E3). In words: negative-stain electron microscopy; filament formation of purified mAire CARD variants after cleavage of the NusA tag with HRV 3C (4 °C, 16 h); diluted in TNE buffer (100 mM Tris pH 8, 50 mM NaCl, 10 mM EDTA) to ~50–200 µg/ml, uranyl formate stain; WT in Fig. 1b also denatured and refolded; both purified.

These are yes or no findings as the source states them, for the method shown.

Regarding “human Aire (hAire) CARD L13P (from UniProt O43918 1-106) (domain or fragment)”, in assay [1], the binding entry is “no binding (tested: ~50–200 µg/ml)”.

With “human Aire (hAire) CARD A58V (from UniProt O43918 1-106) (domain or fragment)”, in assay [2], the binding entry is listed as “no binding (tested: ~50–200 µg/ml)”.

As for “mouse Aire (mAire) CARD R16A/E18A (from UniProt Q9Z0E3 1-105) (domain or fragment)”, the binding entry in assay [3] is “no binding (tested: ~50–200 µg/ml)”.

Turning to “human Aire (hAire) CARD T16M (from UniProt O43918 1-106) (domain or fragment)”, the binding result in assay [4] is “no binding (tested: ~50–200 µg/ml)”.

In the case of “human Aire (hAire) CARD K83E (from UniProt O43918 1-106) (domain or fragment)”, in assay [5], the binding entry is reported as “no binding (tested: ~50–200 µg/ml)”.

Regarding “human Aire (hAire) CARD L28P (from UniProt O43918 1-106) (domain or fragment)”, the binding entry in assay [6] is given as “no binding (tested: ~50–200 µg/ml)”.

B1: mouse Aire (mAire) CARD D35A/D37A (domain or fragment, UniProt Q9Z0E3 1-105)
chain: MAGGDGMLRRLLRLHRTEIAVAIDSAFPLLHALAAHAVVPEDKFQETLRLKEKEGCPQAFHALLSWLLTRDSGAILDFWRILFKDYNLERYSRLHSILDGFPKDV
As for B1, the binding entry in assay [7] was “no binding (tested: ~50–200 µg/ml)”.
